This is an account of results in publication PMC7819943, “Rice protein-binding microarrays: a tool to detect cis-acting elements near promoter regions in rice”.

This is one part of the list.

For this experiment, the target named is T1, OsSMF1 (Oryza sativa, UniProt Q6ZLB0 1-436).
T1 sequence: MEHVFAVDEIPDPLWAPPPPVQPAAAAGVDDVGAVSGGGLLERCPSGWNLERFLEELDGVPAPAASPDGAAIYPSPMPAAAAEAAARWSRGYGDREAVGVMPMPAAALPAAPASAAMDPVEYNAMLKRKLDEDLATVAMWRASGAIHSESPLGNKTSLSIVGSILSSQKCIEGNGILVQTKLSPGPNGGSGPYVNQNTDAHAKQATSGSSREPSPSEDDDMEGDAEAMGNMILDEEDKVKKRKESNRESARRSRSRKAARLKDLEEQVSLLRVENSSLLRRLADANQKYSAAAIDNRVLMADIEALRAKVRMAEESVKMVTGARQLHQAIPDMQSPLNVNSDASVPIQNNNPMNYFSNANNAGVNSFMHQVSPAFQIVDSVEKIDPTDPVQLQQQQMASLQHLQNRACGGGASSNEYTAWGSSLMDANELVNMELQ
The experiment in a line: protein-binding microarray (RPBM); PBS, 2% BSA, 51.3 ng/ul salmon testes DNA, 50 uM zinc acetate, 200 nM TF, 25 C, 1 h; high values mean tight binding. Particulars: protein: recombinant; tags: N-terminal polyhistidine and DsRed monomer fusion (pET32a); chain copies: 2; label: CyDye5-dUTP incorporated in the synthesized complementary strand; 3' TTTTT single-stranded linker to array surface; dsDNA, one strand shown. In short, it runs like this: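 Transcription factors were made in E. coli BL21-CodonPlus as N-terminal fusions to a polyhistidine tag and DsRed, then purified on Ni–NTA. After primer extension with Cy5-dUTP and blocking with 2% BSA, a custom Agilent array was exposed for 1 h at 25 °C to 200 nM protein in PBS, 2% BSA, salmon testes DNA and 50 µM zinc acetate. Washed arrays were scanned on an Axon 4000B, and the binding signal is per-feature fluorescence intensity in arbitrary units.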
In the case of “ATTGCCACGTAGGCGCCACGTGGCGCCACATCAGCAAAACCGGAGTCACCTAGTGCAG”, the binding signal is 40700 fluorescence intensity (a.u.). Next, “TAGGCTTAAAAGATTCATATCGCAATTTACACGCAATCTGCGGAGTCACCTAGTGCAG”: 3530 fluorescence intensity (a.u.). To “ACCGCTGGATTATCGCGGTTATAGGGTACGTCGACGTGGTCGGAGTCACCTAGTGCAG” belongs 4360 fluorescence intensity (a.u.); to “TCAACCGTGAAGCCTTCTCCACTCCACTGATCCACTCCATCGGAGTCACCTAGTGCAG”, 20700 fluorescence intensity (a.u.); to “TGCTTTCCGTCCACGTATTCATCGGGCTGCTTCTCCTCTCCGGAGTCACCTAGTGCAG”, 11900 fluorescence intensity (a.u.).

Take “GGCGCTCCCATCGTACTGCGTGGCTGCTGCCAGATCCAGGCGGAGTCACCTAGTGCAG”: the binding signal was 3790 fluorescence intensity (a.u.). Next, “CTTCAGTCCTCGGCCCATTCTCCCTTCCTTTCAGCTGGCTCGGAGTCACCTAGTGCAG”: 45600 fluorescence intensity (a.u.). To “AGCAAAATCTACGCGATGACGCCACGTGACATGACATCGCCGGAGTCACCTAGTGCAG” belongs 5840 fluorescence intensity (a.u.); to “TATTTTGTACTTCTTGAAAATGTTCCTTTCTTTTCTGTCACGGAGTCACCTAGTGCAG”, 3520 fluorescence intensity (a.u.); to “ACTAATGACGCTAAAAGGAAGGGATAAAACAACTTAACAACGGAGTCACCTAGTGCAG”, 22300 fluorescence intensity (a.u.). Next, “GCTCTCTTTCCGCTTCTACCCTCGTCACGTCCACGAAATCCGGAGTCACCTAGTGCAG”: 5040 fluorescence intensity (a.u.); “AGAGAGAGGACGACATGTGGGTCCCACATGTCAGTGGGGCCGGAGTCACCTAGTGCAG”: 3280 fluorescence intensity (a.u.); “GATGCTATGCTATGCTATGTGAGACTACATGTTAGTATATCGGAGTCACCTAGTGCAG”: 3420 fluorescence intensity (a.u.). As to “ATATATGAGAATTTCCACGTCAAAATGGTGGAAACCTACGCGGAGTCACCTAGTGCAG”, the binding signal was 4620 fluorescence intensity (a.u.). “GCCTCGCGGACTCAGCCAGTCCACGCCATCGGCGGCGAGTCGGAGTCACCTAGTGCAG”: the binding signal is 5200 fluorescence intensity (a.u.).

Consider “CGCTGAGCTGTCGCCATCGACCCGGAGTCCCTCCCGCACCCGGAGTCACCTAGTGCAG”, for which the binding signal is 4570 fluorescence intensity (a.u.).

As to “TAGCAGCCAATTAGTCCACTTAATCACCCATGGATCGCGACGGAGTCACCTAGTGCAG”, the binding signal was 3490 fluorescence intensity (a.u.).

For the sequence “ATTAATAGCAGTGACGTCTTGCACATACTGTATGAGTCATCGGAGTCACCTAGTGCAG”, the binding signal was 11000 fluorescence intensity (a.u.). To “TTTGATGCTGATTATAGGAAAATGTAAATGTTTCTATATACGGAGTCACCTAGTGCAG” belongs 39500 fluorescence intensity (a.u.); to “CACTAACGCTCACACACACTAGGCTCCAACACCAACCCAACGGAGTCACCTAGTGCAG”, 3450 fluorescence intensity (a.u.).

Regarding “AGGCAGAACAGCCATGGCTGAGCTCGATCTCGAGCTCACCCGGAGTCACCTAGTGCAG”, the binding signal is 7160 fluorescence intensity (a.u.). In the case of “CCACCCATCCGGCCGTAACCCGCTGTCCACCATAATCCTGCGGAGTCACCTAGTGCAG”, the binding signal was 3830 fluorescence intensity (a.u.). Next, “GCACTGAATGCGGTCGTATTGGCTTTGTATTTTGGTGTTGCGGAGTCACCTAGTGCAG”: 3260 fluorescence intensity (a.u.); “TCGCTGCCCTCCCGCCCGTTGGCCGAAGGGGAAGAAGGGGCGGAGTCACCTAGTGCAG”: 36900 fluorescence intensity (a.u.). To “ACGCCACGCGCCACCGGCGATCTCGTCCGTCCACGTCCCACGGAGTCACCTAGTGCAG” belongs 5670 fluorescence intensity (a.u.). To “CGTTATTATTGTCTTTCGCATGATCGTATCCGCACGTATGCGGAGTCACCTAGTGCAG” belongs 3490 fluorescence intensity (a.u.); to “TCGAAAGGAACAGGGACCCTGTCAGCAGGTGGCTGATCCTCGGAGTCACCTAGTGCAG”, 4100 fluorescence intensity (a.u.); to “GAGGCGGAGCTACAAATATCCATCCCTTCCAATCCAGGCTCGGAGTCACCTAGTGCAG”, 3220 fluorescence intensity (a.u.). Take “TAGATTAATTTGGAATGGAGGGAGTATATGAGTAAGCTAACGGAGTCACCTAGTGCAG”: the binding signal is 3200 fluorescence intensity (a.u.). To “GCGTGATTCATGCAGCGTGTGCGAAGTACACCAGATCTCACGGAGTCACCTAGTGCAG” belongs 3850 fluorescence intensity (a.u.); to “CTTAATTACGTCATCGTCAACTCGCCGTTTAGTTTAGTCTCGGAGTCACCTAGTGCAG”, 10800 fluorescence intensity (a.u.).

For the sequence “CACAGTTGTGTGACCGACGAGCTTGTTTTATAAAATTACACGGAGTCACCTAGTGCAG”, the binding signal is 3450 fluorescence intensity (a.u.). To “GAATGGAATTGGAACGTTTCTCTGACACGTGGGGCCCACGCGGAGTCACCTAGTGCAG” belongs 11200 fluorescence intensity (a.u.).

In the case of “CAGAAGACGCCGAAGACTGCTCCGCCACATCACTAATGCCCGGAGTCACCTAGTGCAG”, the binding signal was 5280 fluorescence intensity (a.u.). Next, “ACCTCTCCCCGTGAAATAGCCCACGTATGCGCCCCGCGTGCGGAGTCACCTAGTGCAG”: 8860 fluorescence intensity (a.u.); “GCGCGCGCGGCGTTCGGGAGGAAGCGGAAGAGCGCGCCGGCGGAGTCACCTAGTGCAG”: 47000 fluorescence intensity (a.u.). “AACTGACGCCGCCGCCGCGCGCAGTCGATGCATGTTGGGTCGGAGTCACCTAGTGCAG”: the binding signal was 4540 fluorescence intensity (a.u.). In the case of “CACGGGGAAGAAGAAGAGGAGGTTCGCGGCGGGTGATTTGCGGAGTCACCTAGTGCAG”, the binding signal was 3210 fluorescence intensity (a.u.). In the case of “AGGCAAGAAAACGGAGGAGGAAAACTAGGCCACGCATTGACGGAGTCACCTAGTGCAG”, the binding signal is 4060 fluorescence intensity (a.u.). Next, “CGGCGGTGGACTCCCGCGCGCGTCGGCGGGTGCCTGCGGCCGGAGTCACCTAGTGCAG”: 3170 fluorescence intensity (a.u.); “GCTCATGGCCACAGGGCTTAACATAGAATCATCTTAATTGCGGAGTCACCTAGTGCAG”: 3640 fluorescence intensity (a.u.); “GTTTCGCGCTCGTGGTTTCTTACTTGACGCACGTGCAATCCGGAGTCACCTAGTGCAG”: 3260 fluorescence intensity (a.u.). Next, “CTATAGTATGACTCAACTTTATAAACTACATTCTAACTAACGGAGTCACCTAGTGCAG”: 4410 fluorescence intensity (a.u.); “AGAGTGTGTTCTTGGTCAGATGCCACTTGTATTCCACTACCGGAGTCACCTAGTGCAG”: 3860 fluorescence intensity (a.u.); “TAGGATGACATGTGAGGCCCACATGTCAGTGGGCCCCACACGGAGTCACCTAGTGCAG”: 25600 fluorescence intensity (a.u.).

For the sequence “TGCACTCATACCACGACACACGCACACACGTGTCCCTAACCGGAGTCACCTAGTGCAG”, the binding signal is 7120 fluorescence intensity (a.u.).

For “CATTTTAGGTTGCAGCTTATTTGATGCTATGGACACCATCCGGAGTCACCTAGTGCAG”, the binding signal is 29700 fluorescence intensity (a.u.). For “AACGTACGGATAACGGATGGATCGCCTCGTCCGTCTTGGCCGGAGTCACCTAGTGCAG”, the binding signal was 23700 fluorescence intensity (a.u.). “GACCCCACGTGTCAGGATGCCACGTCGGCAAGCCATCCTCCGGAGTCACCTAGTGCAG”: the binding signal is 33900 fluorescence intensity (a.u.). To “CGCTCTTGAGTCTTGACTTTCTCTGCCACGAGAGCTCATCCGGAGTCACCTAGTGCAG” belongs 3280 fluorescence intensity (a.u.); to “CTCATCTCCTTTCGTACCGTATATAAGAGCCACCCCATGCCGGAGTCACCTAGTGCAG”, 3430 fluorescence intensity (a.u.); to “AAATCGGATTTTCGCGTGCGGGTTCTGATGACGTCCGCACCGGAGTCACCTAGTGCAG”, 11600 fluorescence intensity (a.u.). On to “GTGCAGTCTGCGGTTCTCTCTTGATGACTGGCTCATAATGCGGAGTCACCTAGTGCAG”, for which the binding signal is 4370 fluorescence intensity (a.u.).

As to “GCCTCACAACCCGCATGGACACTGACATCGGCATCATCATCGGAGTCACCTAGTGCAG”, the binding signal was 4260 fluorescence intensity (a.u.).
